Some of the results follow.

The chains behind the UniProt entries cited, without tags or fusion partners.
UniProt Q0JBA9, entry or part of it: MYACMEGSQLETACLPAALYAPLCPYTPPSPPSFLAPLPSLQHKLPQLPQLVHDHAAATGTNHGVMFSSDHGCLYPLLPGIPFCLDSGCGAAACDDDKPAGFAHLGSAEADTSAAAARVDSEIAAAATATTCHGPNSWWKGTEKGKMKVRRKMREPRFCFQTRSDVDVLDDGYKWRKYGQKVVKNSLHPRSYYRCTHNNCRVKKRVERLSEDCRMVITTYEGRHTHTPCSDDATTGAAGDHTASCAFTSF

The target of the assay is OsWRKY34 (Oryza sativa, UniProt Q0JBA9 1-250). Kind of assay: protein-binding microarray (RPBM); PBS, 2% BSA, 51.3 ng/ul salmon testes DNA, 50 uM zinc acetate, 200 nM TF, 25 C, 1 h; high values mean tight binding. To be noted: protein: recombinant; tags: N-terminal polyhistidine and DsRed monomer fusion (pET32a); label: CyDye5-dUTP incorporated in the synthesized complementary strand; 3' TTTTT single-stranded linker to array surface; dsDNA, one strand shown. Summed up:
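Transcription factors were each fused at the N-terminus to a polyhistidine tag plus DsRed and expressed in E. coli BL21-CodonPlus before Ni–NTA purification. Binding to a double-stranded custom Agilent array was carried out with 200 nM protein at 25 °C for 1 h in PBS, 2% BSA, salmon testes DNA and 50 µM zinc acetate. The binding signal is per-feature fluorescence intensity, in arbitrary units, on an Axon 4000B scanner.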
Turning to “AATTCTCACTTGACTCATGATTATCATCTCTACTATCGAACGGAGTCACCTAGTGCAG”, the binding signal was 9990 fluorescence intensity (a.u.).

For the sequence “ACGCAGGATCCGAGTCAGTCAACGCATTCCAAGGGAGGGCCGGAGTCACCTAGTGCAG”, the binding signal was 8120 fluorescence intensity (a.u.).

Regarding “ATTCTCTATCGTTTTGACCACAATGTATATTACTGTTTATCGGAGTCACCTAGTGCAG”, the binding signal is 8280 fluorescence intensity (a.u.).

In the case of “GAAATACTGTAGGAGGTTCTATTGTGTATGCCATTTTATTCGGAGTCACCTAGTGCAG”, the binding signal is 8940 fluorescence intensity (a.u.).

With “TCCGCCCGCTTCTCTGGTTTCTCGGCGGTGTCTTTTACTCCGGAGTCACCTAGTGCAG”, the binding signal was 11600 fluorescence intensity (a.u.).

Turning to “ACCGTTTTGCCATCAATTTGCATATCACATCAGTTAATTTCGGAGTCACCTAGTGCAG”, the binding signal is 10800 fluorescence intensity (a.u.).

For the sequence “AACCGTCAGTTTTCCTTGCTTGCTTCGCCGCGTTGCCTTTCGGAGTCACCTAGTGCAG”, the binding signal is 8840 fluorescence intensity (a.u.).

Consider “CGATGTTGACAATATACCTTGTCTGAAGAGCACCTCATGCCGGAGTCACCTAGTGCAG”, for which the binding signal is 8080 fluorescence intensity (a.u.).

Turning to “CGTGCCACCAATTTCCTACCTGTCATTTGAATATCGAATTCGGAGTCACCTAGTGCAG”, the binding signal was 8300 fluorescence intensity (a.u.).

With “GGTCGCCATCCACCGCCACCACACCACCCGCCACGCACGTCGGAGTCACCTAGTGCAG”, the binding signal is 9260 fluorescence intensity (a.u.).

As to “CTTCTCGGTTTTTTCCGTGCGGTCGAAGCATCGGTTCCTTCGGAGTCACCTAGTGCAG”, the binding signal is 8080 fluorescence intensity (a.u.).

For “TTCCTTTTCCGTTTTGATATTGGGTTATGTTGGTTGGTCTCGGAGTCACCTAGTGCAG”, the binding signal was 9800 fluorescence intensity (a.u.).

With “ACTATTACTACCTCAGTTTTGAAATGTATGACGTTGACTTCGGAGTCACCTAGTGCAG”, the binding signal is 11000 fluorescence intensity (a.u.).

On to “CTCCATCCGCGGCGCATCCCATCTCGCCCCGGCGACTCGTCGGAGTCACCTAGTGCAG”, for which the binding signal was 8140 fluorescence intensity (a.u.).

In the case of “ATGCGATTCAAATGGCCCTAAACTTTTTTTTTTCTCTACTCGGAGTCACCTAGTGCAG”, the binding signal was 9120 fluorescence intensity (a.u.).

As to “GACGTATTGATTGTAGGAATAAGTCTTGGCTGGTTGGTCTCGGAGTCACCTAGTGCAG”, the binding signal is 8580 fluorescence intensity (a.u.).

As to “ATCAACAACGTCACCCTCCGCATGCGTACTCATCTTCATCCGGAGTCACCTAGTGCAG”, the binding signal is 11700 fluorescence intensity (a.u.).

For “GATCTATGGGGATTTGGGGTGATGGTACTGAAATCAATAGCGGAGTCACCTAGTGCAG”, the binding signal is 9550 fluorescence intensity (a.u.).

Consider “CCCCATTGACGCCCACGCACGCCCACACCTCCCCATCAACCGGAGTCACCTAGTGCAG”, for which the binding signal is 11600 fluorescence intensity (a.u.).

Turning to “GTCTATGGGCCGTGTGCTTTTCCGATTCTAATTCAGTTTTCGGAGTCACCTAGTGCAG”, the binding signal was 9940 fluorescence intensity (a.u.).

Take “TGCGTTGGCGGTGGGCTCTGTGTGCGGGTTCCTGATGATGCGGAGTCACCTAGTGCAG”: the binding signal is 8040 fluorescence intensity (a.u.).

“GGTCCACCTTTTTTATTTTTGTTTGCTAATTATAATATCACGGAGTCACCTAGTGCAG”: the binding signal is 8480 fluorescence intensity (a.u.).

In the case of “GCTATTCCTAGCTGGTCCATACATTTTTTGTTGCTAAAGCCGGAGTCACCTAGTGCAG”, the binding signal was 8140 fluorescence intensity (a.u.).

As to “GTGGACGACGACCTCGTTTCGCTGCAGTCTTGCGCGCGCGCGGAGTCACCTAGTGCAG”, the binding signal is 8070 fluorescence intensity (a.u.).

As to “ATTCTTTCTGAACCGTTTTCCGGAAAACCAGAGCTGTATACGGAGTCACCTAGTGCAG”, the binding signal was 9560 fluorescence intensity (a.u.).

Take “TGGGTTCTATATTGCCACGCTCGAGATTTGATTCAAACACCGGAGTCACCTAGTGCAG”: the binding signal is 8790 fluorescence intensity (a.u.).

Consider “GTATCTATAGCTCTCTAATATATTGTCTCGTTTTTCTCTACGGAGTCACCTAGTGCAG”, for which the binding signal is 12700 fluorescence intensity (a.u.).

Consider “CCATGGCGTGTAGCTAGCTAGTTTCTTTCTTTGCACTTCTCGGAGTCACCTAGTGCAG”, for which the binding signal was 9760 fluorescence intensity (a.u.).

“TCACACGTTTCATTGACGTTTCCTAGCATCCGACCTCTCTCGGAGTCACCTAGTGCAG”: the binding signal is 9620 fluorescence intensity (a.u.).

With “ATCTTCTCAGATGAGATGCCCGTGCATGCATGCTGATTGTCGGAGTCACCTAGTGCAG”, the binding signal is 9810 fluorescence intensity (a.u.).

In the case of “TTAATATCACTATCTCCACTTCAGTCGTTTTAATCTTTTTCGGAGTCACCTAGTGCAG”, the binding signal was 10800 fluorescence intensity (a.u.).

On to “GTGTGGGTTGACCGAATTGGATCAAGATTATTGCGGGAGGCGGAGTCACCTAGTGCAG”, for which the binding signal was 9640 fluorescence intensity (a.u.).

As to “TTATTATTTATTTTATTTGTGACTTACTTTATTATCCAAACGGAGTCACCTAGTGCAG”, the binding signal is 8350 fluorescence intensity (a.u.).

In the case of “CTGGATTATTAGCTTTTTGTTAGTTGTTAGCCACCCAATACGGAGTCACCTAGTGCAG”, the binding signal was 10100 fluorescence intensity (a.u.).

Turning to “ACCCACCCACCCGGCACCCACCCACCCACTACCTCTCTCTCGGAGTCACCTAGTGCAG”, the binding signal is 11900 fluorescence intensity (a.u.).

For the sequence “TGGATGAGACCGACCCTTGTTTGGCTTGTTGTTCATAGTTCGGAGTCACCTAGTGCAG”, the binding signal is 9260 fluorescence intensity (a.u.).

In the case of “ACAACCTCTGCGCAACGATCATAAATTTCTACCACAACTTCGGAGTCACCTAGTGCAG”, the binding signal was 8090 fluorescence intensity (a.u.).

“GGATCTACTGGGTGGGAGGAGCGCGGCGCCGGGCGCCGCCCGGAGTCACCTAGTGCAG”: the binding signal was 11100 fluorescence intensity (a.u.).

Turning to “CACGGAGTCAAAAAGCCCGCCATGTCTTCCATTCCACAAACGGAGTCACCTAGTGCAG”, the binding signal was 8570 fluorescence intensity (a.u.).

On to “TCTAATCAAACGACCATTCATGTATATTGCAATCCTCTGTCGGAGTCACCTAGTGCAG”, for which the binding signal was 9080 fluorescence intensity (a.u.).

In the case of “GGCGAAGAGATTTTGGTGTGGTCATTGCTTTTGAGAAAGACGGAGTCACCTAGTGCAG”, the binding signal was 8090 fluorescence intensity (a.u.).

With “TAGCAACAAACTTGATGCATACATCATCTCCACTATTTTCCGGAGTCACCTAGTGCAG”, the binding signal was 8510 fluorescence intensity (a.u.).

The values above are taken from publication PMC7819943, “Rice protein-binding microarrays: a tool to detect cis-acting elements near promoter regions in rice”.
